Results deposited as PubChem BioAssay AID1259405 (NCATS, 2018)
Aim: 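Mouse-designed siRNAs used to find CHO productivity engineering targets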 (primary screen). System: Chinese hamster CHO-K1 ovary cells with stable secreted eGFP expression. Reagents: single siRNA against mouse genes, 0.8 pmol siRNA per well (2 µl of 400 nM stock). Duration: 3 days. Detection: 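Percent of the per-plate non-targeting control median for intracellular GFP per well by laser scanning cytometry and for cell viability by ATP luminescence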. Direction: GFP, % of control: higher = more GFP per well, higher productivity; viability (ATP), % of control: higher = more viable cells (more ATP). Rule for the call: 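Called active when intracellular GFP, relative to negative control, is at or above 120%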.
Shown is an unselected part of about 50,000 deposited reagents. In the full data, about 4,000 (8%) were called active. 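Mouse siRNA library applied to hamster cells; one well for each siRNA.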 Unmarked entries are inactive.

target gene | PubChem SID | GFP, % of control | viability (ATP), % of control
Scd4 (GeneID 329065) | SID363556855 | 47.9 | 43.2
Scd4 (GeneID 329065) | SID363563759 | 54.1 | 58.5
Scd4 (GeneID 329065) | SID363587305 | 76 | 86.2
Cmah (GeneID 12763) | SID363550197 | 74.5 | 94.8
Cmah (GeneID 12763) | SID363564706 | 65.5 | 74.2
Cmah (GeneID 12763) | SID363588251 | 58.9 | 87.5
Tspo (GeneID 12257) | SID363575091 | 76.5 | 70
Tspo (GeneID 12257) | SID363580723 | 79.7 | 72.7
Tspo (GeneID 12257) | SID363582835 | 62.9 | 84
Eny2 (GeneID 223527) | SID363543470 | 74.8 | 80.1
Eny2 (GeneID 223527) | SID363552963 | 78.7 | 79.5
Eny2 (GeneID 223527) | SID363558811 | 53.1 | 58.4
Slc17a5 (GeneID 235504) | SID363574679 | 77.1 | 102
Slc17a5 (GeneID 235504) | SID363575735 | 66.7 | 90.6
Slc17a5 (GeneID 235504) | SID363580311 | 57.6 | 66.8
Prr27 (GeneID 73779) | SID363542415 | 71.5 | 60.4
Prr27 (GeneID 73779) | SID363551906 | 47.2 | 51.8
Prr27 (GeneID 73779) | SID363559511 | 104 | 81.6
Zc3h12d (GeneID 237256) | SID363539726 | 53.9 | 69.3
Zc3h12d (GeneID 237256) | SID363561027 | 88.5 | 45.2
Zc3h12d (GeneID 237256) | SID363565117 | 91.9 | 93.2
Kcnn2 (GeneID 140492) | SID363574916 | 99.7 | 106
Kcnn2 (GeneID 140492) | SID363575972 | 66.8 | 58.5
Kcnn2 (GeneID 140492) | SID363580548 | 84.2 | 75.7
Dlgap5 (GeneID 218977) | SID363539502 | 57 | 81
Dlgap5 (GeneID 218977) | SID363560803 | 92.6 | 91.6
Dlgap5 (GeneID 218977) | SID363564893 | 85.9 | 76
Lztr1 (GeneID 66863) | SID363573572 | 98.4 | 105
Lztr1 (GeneID 66863) | SID363581316 | 111 | 103
Lztr1 (GeneID 66863) | SID363583780 | 76.6 | 81.6
Cdh11 (GeneID 12552) | SID363572939 | 74.5 | 87.4
Cdh11 (GeneID 12552) | SID363577515 | 91 | 70.1
Cdh11 (GeneID 12552) | SID363581035 | 65 | 74.5
Ap2a1 (GeneID 11771) | SID363544198 | 152 (active) | 121
Ap2a1 (GeneID 11771) | SID363550526 | 92.6 | 66.8
Ap2a1 (GeneID 11771) | SID363557075 | 92.6 | 72.6
Col27a1 (GeneID 373864) | SID363553740 | 82.9 | 71.7
Col27a1 (GeneID 373864) | SID363561697 | 129 (active) | 75.5
Col27a1 (GeneID 373864) | SID363565435 | 93.2 | 70.8
Kdm5b (GeneID 75605) | SID363573781 | 58.3 | 88.4
Kdm5b (GeneID 75605) | SID363581525 | 55.9 | 61.2
Kdm5b (GeneID 75605) | SID363583989 | 80.8 | 98.3
Iigp1 (GeneID 60440) | SID363540340 | 91.1 | 99.4
Iigp1 (GeneID 60440) | SID363542092 | 55.7 | 69.6
Iigp1 (GeneID 60440) | SID363567008 | 72.7 | 92.9
Elavl4 (GeneID 15572) | SID363569646 | 49.7 | 62.5
Elavl4 (GeneID 15572) | SID363577390 | 59.5 | 29
Elavl4 (GeneID 15572) | SID363578798 | 55.6 | 48.2
Rab29 (GeneID 226422) | SID363570093 | 59.6 | 60.2
Rab29 (GeneID 226422) | SID363576429 | 103 | 69.7
Rab29 (GeneID 226422) | SID363579597 | 78.1 | 78.3
Tgfb3 (GeneID 21809) | SID363541831 | 65 | 83.5
Tgfb3 (GeneID 21809) | SID363553423 | 110 | 68.6
Tgfb3 (GeneID 21809) | SID363566747 | 41.2 | 47.9
Acp5 (GeneID 11433) | SID363575283 | 98.6 | 85.3
Acp5 (GeneID 11433) | SID363580915 | 82.5 | 56.5
Acp5 (GeneID 11433) | SID363583027 | 112 | 58.5
Cacna2d3 (GeneID 12294) | SID363574413 | 81 | 59.1
Cacna2d3 (GeneID 12294) | SID363575469 | 86.3 | 74.6
Cacna2d3 (GeneID 12294) | SID363580045 | 38.3 | 46.1
Phf19 (GeneID 74016) | SID363540906 | 53.2 | 73.6
Phf19 (GeneID 74016) | SID363555533 | 53.8 | 67.6
Phf19 (GeneID 74016) | SID363565822 | 83.6 | 69.7
Twsg1 (GeneID 65960) | SID363556736 | 51.2 | 26
Twsg1 (GeneID 65960) | SID363563640 | 65.7 | 53
Twsg1 (GeneID 65960) | SID363587186 | 92.2 | 93.4
Rabggta (GeneID 56187) | SID363545222 | 82.5 | 67.4
Rabggta (GeneID 56187) | SID363548735 | 63 | 62.1
Rabggta (GeneID 56187) | SID363562541 | 77.9 | 62.2
Or2at4 (GeneID 259066) | SID363544961 | 78.1 | 85.9
Or2at4 (GeneID 259066) | SID363551289 | 73.6 | 103
Or2at4 (GeneID 259066) | SID363557838 | 64 | 67.7
Ush1c (GeneID 72088) | SID363541357 | 55 | 65.4
Ush1c (GeneID 72088) | SID363555984 | 81.2 | 87.3
Ush1c (GeneID 72088) | SID363566273 | 76.1 | 84.1
Rab5c (GeneID 19345) | SID363541646 | 90.1 | 56.4
Rab5c (GeneID 19345) | SID363553238 | 77.7 | 74.3
Rab5c (GeneID 19345) | SID363566562 | 35.7 | 54.2
Gclc (GeneID 14629) | SID363572786 | 59.4 | 45.2
Gclc (GeneID 14629) | SID363578066 | 78.2 | 73.8
Gclc (GeneID 14629) | SID363582290 | 79.7 | 134
Or52z13 (GeneID 259049) | SID363554444 | 82.5 | 74.5
Or52z13 (GeneID 259049) | SID363567891 | 83 | 63.8
Or52z13 (GeneID 259049) | SID363585248 | 43.5 | 85.3
Zfp334 (GeneID 228876) | SID363573601 | 63.8 | 73.1
Zfp334 (GeneID 228876) | SID363581345 | 81.8 | 76.2
Zfp334 (GeneID 228876) | SID363583809 | 75.4 | 81.6
Agbl2 (GeneID 271813) | SID363570486 | 63.5 | 87.7
Agbl2 (GeneID 271813) | SID363579286 | 86.3 | 123
Agbl2 (GeneID 271813) | SID363583158 | 107 | 130
Msantd5l (GeneID 193286) | SID363547035 | 75.3 | 87.7
Msantd5l (GeneID 193286) | SID363549847 | 87.9 | 89.9
Msantd5l (GeneID 193286) | SID363587901 | 137 (active) | 127
Chrm2 (GeneID 243764) | SID363571255 | 45.2 | 20.8
Chrm2 (GeneID 243764) | SID363571607 | 58.9 | 60
Chrm2 (GeneID 243764) | SID363571959 | 60 | 59.6
Tmem71 (GeneID 213068) | SID363546819 | 47.3 | 32.4
Tmem71 (GeneID 213068) | SID363548575 | 66.2 | 97.9
Tmem71 (GeneID 213068) | SID363560753 | 67.3 | 75.7
Rdh11 (GeneID 17252) | SID363575247 | 94.1 | 80.9
Rdh11 (GeneID 17252) | SID363580879 | 46.6 | 78.7
Rdh11 (GeneID 17252) | SID363582991 | 87.1 | 85.1
Hip1 (GeneID 215114) | SID363541219 | 68.1 | 70
Hip1 (GeneID 215114) | SID363555846 | 64.2 | 66.2
Hip1 (GeneID 215114) | SID363566135 | 79.7 | 78.4
Tas2r106 (GeneID 387341) | SID363556510 | 93.6 | 86
Tas2r106 (GeneID 387341) | SID363586960 | 100 | 101
Tas2r106 (GeneID 387341) | SID363589068 | 85.6 | 96.3

7 neighbouring reagents from above:
target gene | PubChem SID | GFP, % of control | viability (ATP), % of control
Rab29 (GeneID 226422) | SID363570093 | 59.6 | 60.2
Rab29 (GeneID 226422) | SID363576429 | 103 | 69.7
Rab29 (GeneID 226422) | SID363579597 | 78.1 | 78.3
Tgfb3 (GeneID 21809) | SID363541831 | 65 | 83.5
Tgfb3 (GeneID 21809) | SID363553423 | 110 | 68.6
Tgfb3 (GeneID 21809) | SID363566747 | 41.2 | 47.9
Acp5 (GeneID 11433) | SID363575283 | 98.6 | 85.3
